Measurements published in paper PMC6237183 (Nature structural & molecular biology, 2018).
“And” between values parts separate entries of the source, which are not always exact repeats. Equal entries are not always repeated.

By UniProt entry, the sequences of proteins in these tests, tags left out.
UniProt P41595, whole entry: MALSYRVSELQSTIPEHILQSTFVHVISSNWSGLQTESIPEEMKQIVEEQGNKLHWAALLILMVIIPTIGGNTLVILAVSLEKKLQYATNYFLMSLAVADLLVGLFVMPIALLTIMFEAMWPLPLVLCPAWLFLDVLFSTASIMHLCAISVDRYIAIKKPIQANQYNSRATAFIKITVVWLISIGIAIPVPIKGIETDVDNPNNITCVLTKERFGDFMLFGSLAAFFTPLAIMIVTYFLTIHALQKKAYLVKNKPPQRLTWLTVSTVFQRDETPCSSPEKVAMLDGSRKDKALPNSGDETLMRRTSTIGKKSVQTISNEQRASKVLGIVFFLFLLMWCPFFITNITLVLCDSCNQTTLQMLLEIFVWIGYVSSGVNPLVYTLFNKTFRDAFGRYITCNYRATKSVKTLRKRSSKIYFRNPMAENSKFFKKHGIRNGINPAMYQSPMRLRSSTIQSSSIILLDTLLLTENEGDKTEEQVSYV
UniProt P41595, whole entry A225G: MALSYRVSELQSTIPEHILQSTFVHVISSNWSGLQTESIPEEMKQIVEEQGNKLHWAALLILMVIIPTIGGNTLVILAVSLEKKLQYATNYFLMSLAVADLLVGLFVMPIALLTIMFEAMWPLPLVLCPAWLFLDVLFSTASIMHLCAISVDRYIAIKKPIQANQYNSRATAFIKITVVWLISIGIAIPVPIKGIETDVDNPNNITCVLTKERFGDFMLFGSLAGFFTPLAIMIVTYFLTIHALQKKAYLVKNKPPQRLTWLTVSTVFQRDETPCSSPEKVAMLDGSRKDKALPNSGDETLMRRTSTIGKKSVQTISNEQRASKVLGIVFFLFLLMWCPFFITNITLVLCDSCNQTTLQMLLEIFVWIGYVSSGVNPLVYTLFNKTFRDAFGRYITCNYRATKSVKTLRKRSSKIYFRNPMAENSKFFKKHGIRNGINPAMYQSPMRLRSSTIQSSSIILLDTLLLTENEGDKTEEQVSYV

Assays:
5-HT2BR wild-type = 5-HT2BR wild-type (Homo sapiens, UniProt P41595); assay: Gq-mediated calcium flux FLIPR assay
5-HT2BR A225G^5.46 [1] = target: T1, 5-HT2BR A225G^5.46 (Homo sapiens, UniProt P41595, A225G); assay: β-Arrestin2 recruitment Tango assay
5-HT2BR A225G^5.46 [2] = target: T1, 5-HT2BR A225G^5.46; assay: Gq-mediated calcium flux FLIPR assay; details: Gq calcium flux EC50, A225G^5.46 mutant

What does the source list for `CC[C@@H](CO)NC(=O)[C@@H]1C=C2c3cccc4c3c(cn4C)C[C@H]2N(C)C1` [methysergide]?
IC50 (5-HT2BR wild-type): 2.4 nM; EC50 (5-HT2BR A225G^5.46 [1]): 1.7 nM; EC50 (5-HT2BR A225G^5.46 [2]): 12 nM and 33 nM
